These are yes or no findings as the source states them, for the method shown. In cells and extracts the contact can be indirect. Some results given as binding are weak or reduced against the parent protein; the word gives no strength. Where a sequence is shown, tags or fusion partners need not be part of it.
Experiments:
[1] = target: T1, procaspase 1 (endogenous, rat stellate cells) (rat) (UniProt P43527); assay: anti-HA co-immunoprecipitation and immunoblot, transfected rat stellate cells
T1 sequence (looked up): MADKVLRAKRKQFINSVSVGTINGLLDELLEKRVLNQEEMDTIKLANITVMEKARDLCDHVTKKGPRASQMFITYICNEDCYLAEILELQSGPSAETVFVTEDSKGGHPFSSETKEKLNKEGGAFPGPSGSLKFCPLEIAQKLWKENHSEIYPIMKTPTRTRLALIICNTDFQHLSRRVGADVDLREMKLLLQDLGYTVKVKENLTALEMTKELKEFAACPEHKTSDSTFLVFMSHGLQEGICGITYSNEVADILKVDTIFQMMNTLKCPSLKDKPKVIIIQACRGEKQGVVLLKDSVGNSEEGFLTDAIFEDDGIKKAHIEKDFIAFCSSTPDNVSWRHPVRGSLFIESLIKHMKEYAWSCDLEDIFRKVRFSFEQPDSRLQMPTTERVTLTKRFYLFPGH

[2] = target: T2, procaspase 8 (endogenous, rat stellate cells) (rat) (UniProt Q9JHX4); assay: as above
T2 sequence (looked up): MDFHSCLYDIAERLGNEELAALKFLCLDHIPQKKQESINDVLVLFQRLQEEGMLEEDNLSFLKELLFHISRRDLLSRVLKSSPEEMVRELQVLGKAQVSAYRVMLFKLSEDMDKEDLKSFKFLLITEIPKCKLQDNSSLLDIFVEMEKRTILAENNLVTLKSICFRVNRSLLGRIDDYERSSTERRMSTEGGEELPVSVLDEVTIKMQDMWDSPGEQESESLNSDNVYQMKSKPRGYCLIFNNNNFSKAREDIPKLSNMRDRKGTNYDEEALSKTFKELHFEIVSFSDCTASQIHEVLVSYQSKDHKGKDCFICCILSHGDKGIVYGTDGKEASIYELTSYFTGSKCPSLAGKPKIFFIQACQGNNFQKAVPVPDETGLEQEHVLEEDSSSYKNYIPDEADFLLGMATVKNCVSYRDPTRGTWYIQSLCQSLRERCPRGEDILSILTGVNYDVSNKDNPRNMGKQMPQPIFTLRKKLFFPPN

B1: rC/EBPβ 92-142-HA with Asp^105 (protein, not shown: small tags and cut ends)
chain: FADDYGAKPSKKPDDYGYVSLGRAGAKAAPPACFPPPPPAALKAEPGFEPA
In the case of B1, the binding [1] is reported as “binds” and the binding [2] is reported as “binds”.
